Results from PMC8439062.
Results are given in words; binding and its absence hold for the method and conditions named. In cells and extracts the contact can be indirect. Binding can be weak; no strength is given. Tags and fused reporters may be left off the sequences shown.

Target: HA-MG53(FL), full-length human MG53 (TRIM72) (human)
Assay: co-IP; HEK293 cells transfected with HA-MG53 (full length or deletion mutants) and Myc-DDK-tagged G3BP2 for 24 hr, MG132 (10 uM) for 16 hr; RIPA buffer lysate; IP with anti-HA magnetic beads, blot with anti-HA and anti-G3BP2

binding: binds
B1: Myc-DDK-tagged G3BP2 (Ras GTPase-activating protein-binding protein 2) (protein, UniProt Q9UN86 1-482)
chain: MVMEKPSPLLVGREFVRQYYTLLNKAPEYLHRFYGRNSSYVHGGVDASGKPQEAVYGQNDIHHKVLSLNFSECHTKIRHVDAHATLSDGVVVQVMGLLSNSGQPERKFMQTFVLAPEGSVPNKFYVHNDMFRYEDEVFGDSEPELDEESEDEVEEEQEERQPSPEPVQENANSGYYEAHPVTNGIEEPLEESSHEPEPEPESETKTEELKPQVEEKNLEELEEKSTTPPPAEPVSLPQEPPKAFSWASVTSKNLPPSGTVSSSGIPPHVKAPVSQPRVEAKPEVQSQPPRVREQRPRERPGFPPRGPRPGRGDMEQNDSDNRRIIRYPDSHQLFVGNLPHDIDENELKEFFMSFGNVVELRINTKGVGGKLPNFGFVVFDDSEPVQRILIAKPIMFRGEVRLNVEEKKTRAARERETRGGGDDRRDIRRNDRGPGGPRGIVGGGMMRDRDGRGPPPRGGMAQKLGSGRGTGQMEGRFTGQRR
